In PubChem BioAssay AID1347423 (Functional Genomics Laboratory (NCATS/FGL), 2020):
Screen size: about 52,000 sequences; about 210 (0.4%) were called active.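 Rule for the calls: active = gene whose silencing raises cell survival under the drug, median off-target-corrected z-score across its silencing RNAs 2 or more; inactive = the rest.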 This is one part of the list.

assay: Resistance to Poly (ADP-Ribose) Polymerase inhibitor: Gene Identification via Genome-wide siRNA Screen; details: mouse BRCA2 R2336H ES cells, olaparib, CellTiter-Glo viability; active compounds read high
How it was run: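 Mouse BRCA2 R2336H ES cells were reverse-transfected with siRNA (20 nM final), treated at 48 h with 500 nM olaparib, and read by CellTiter-Glo after 72 h. Scores: MAD-based z per siRNA, median per gene, seed off-target correction.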

Sequence | z-score
CUCUGUACUUGGGCAGGAATT against Cyp2c65 | inactive: -2.06
GGCAGAUACUGAUUUUCCGTT against Mcam | inactive: 2.57
GGUCUUUAGGUGCUAAAGATT against C920005C14Rik | inactive: 0.631
GGCAGAAUUCUCAGAGCUUTT against Syn2 | inactive: -2.2
CCCUGAAGGCUUACUUUUUTT against 4930428O21Rik | inactive: 0.296
CGUUUUCAGAGAUGUGCGCTT against Cklfsf5 | inactive: 0.112
GCCGUUCACUUUUCAGUAUTT against Slc35b3 | inactive: -1.56
GGUGUCGAGAAGCCUCAAATT against Arhgap24 | inactive: -0.788
GCUGAAACUAACAUUUGAUTT against Anxa3 | inactive: -0.872
GGCUGCUCCACCCUAUAAUTT against Sugt1 | inactive: -1.61
GGUCCCAGACUGAGUGAAATT against Epo | inactive: 2.32
GGGUUUCAGUCUUCUUAUCTT against Olfr556 | inactive: -0.249
GCGGUCUAAGUCCUUUAGCTT against 0610025L06Rik | inactive: -0.245
GGCCACUGGCAAUGAAAAATT against Gata5 | inactive: 0.623
GAUCACACUGAAAUCAUCATT against Nudt11 | inactive: 1.56
GGUUGGCUUCAAAAAUAUGTT against Psmb1 | inactive: -3.41
CGUCCAAGCAUAUAUGAAATT against Slfn8-pending | inactive: -0.306
GGUGUAUGAGGUGCUGCUATT against Ushbp1 | inactive: -1.92
CCUGACUCUACAUUUUACATT against 4921526G09Rik | inactive: 1.23
GGUUGACUUCAAUAGUUCUTT against Krtap4-7 | inactive: 0.545
GCCACUGCACUAUUUAACUTT against Olfr1247 | inactive: 0.0845
GGAGAGUUUUAGAUGCCUCTT against Prnpip1 | inactive: 0.171
GGGACUCCCAGGCUGUAAATT against Zfp263 | inactive: -0.667
GCUAUGGCGCAUACUGCCATT against Olfr881 | inactive: -0.673
CGUGUGGUGUUGGUAUCAGTT against 4930540L03Rik | inactive: -0.151
CCCAAUGAACAAGCUUAAGTT against Eif3s4 | inactive: -0.039

Sequence | z-score
AGUCAAGACCCAUAGAAAATT against Ociad2 | inactive: 0.132
GGCUCGACUUGGAGAAAAGTT against D2Ertd391e | inactive: -2.59
GGGAUGCGAGAUGAUCUGCTT against Scrg1 | inactive: 0.768
GGAUGAGGAAUUUUACACUTT against Klhl11 | inactive: 0.136
GCCAAUAUCUAUCUACUACTT against 4930405J24Rik | inactive: -0.352
GGGAAGGGAUCCUAUAUUUTT against 2600001B17Rik | inactive: 2.41
CCUACCCGAUUAUUCUUACTT against Tmem24 | inactive: -0.135
CCACCGUUGUGGAAGAAUCTT against 9130218O11Rik | inactive: -0.00621
CCACUUUUAAAGGAAUGUGTT against Ncoa1 | inactive: -0.0128
GGCAUUGGAGAAUUGAAAATT against Sptlc2 | inactive: 1.12
GGUCUAAGACUAAAUAUCCTT against Sfxn1 | inactive: -0.136
GCAGAAAAUAAAUCGAAGGTT against Sgol2 | inactive: -0.33
GGGCUUUGUGGAUGCGAUUTT against Sec15l1 | inactive: -0.215
CGCUGUUUGUUCAAGAGGATT against Thbs1 | inactive: -1.14
CGCGAAUCUAUGAAUCAAATT against 2410002M20Rik | inactive: 0.359
GGCAUACAGUUUUGGCAGUTT against Pilra | inactive: 0.692
GGAUAUCAGGAACAUAGUATT against Leprel2 | inactive: -0.263
GCCUAAUAAAGAGCCUGUCTT against Tifp39 | inactive: -0.88
GCCAUGUACACAGACAGUUTT against Mcm10 | inactive: -0.279
GGAUGAGGAGGUCUUUUCUTT against Pde6c | inactive: 0.582
GGAAAGAAGAUCGAUUACATT against Atp11c | inactive: -0.678
GGUAACACUAUCAAGUCUUTT against Txndc2 | inactive: -0.0702
GGAGAACUUCUUAUUCAGATT against 1700026D08Rik | inactive: -0.133
GGCCGUAGGACAGUAUACATT against Wnt5a | inactive: -0.601
GCGACCCUUCCAUUGUAUUTT against Vsnl1 | inactive: 1.8
GGACAAAGAUAAUGGAAAATT against 4933407N01Rik | inactive: 0.929

Sequence | z-score
GGUGUUUGAGCAUAUUGGATT against Cat | inactive: -0.519
GGCCACCUCUCGAAAGUUUTT against Cmya1 | inactive: -1.47
GCUCGAUUCAGAAAUCUACTT against Sgce | inactive: -0.611
CCUUAUUUUACGGAACUGCTT against Olfr1018 | inactive: 0.819
CCAUGUUCGGACGUGGUCUTT against Shkbp1 | inactive: -0.18
GCAUCUUCGAGGUUUCAAATT against BC006583 | inactive: 2.47
GCCGAGUCUCAGCUUGUAATT against Dnajc3 | inactive: -1.16
GGAUCUGAGAUUGACCAAGTT against Usp1 | inactive: 1.65
GCUUAUGAGUUAUAUUGCATT against Olfr894 | inactive: 0.0951
CCACUUUAUGGCCAGCCUUTT against Nr2e3 | inactive: -1.69
CGAGUUUAAGGACAUCGAATT against Gjb2 | inactive: -0.146
CCCACAGAAUUUGGACAUATT against Ptcra | inactive: -0.0222
GGUCGACGUGGACUUGACATT against Art4 | inactive: -2.1
GCACUGGACCAAAGAACGGTT against Ceecam1 | inactive: 0.0138
GGCCAGAGAGUCAAGGUUATT against A030007L22 | inactive: -2.36
GCCACAACCACCUGAACUUTT against Amigo | inactive: 0.657
GGUUACUAGAAAAGUGUUGTT against Olfr1489 | inactive: 1.71
GGGUCAAUUUCUCAUGCCUTT against Icam5 | inactive: 0.353
CCGACAGCUCUAAAGGAACTT against Brunol6 | inactive: -1.23
CGUGCUGUUAUAAUGUUGUTT against Ccl12 | inactive: 0.698
GGAGCUACAGCAGUGCUUUTT against Htr5a | inactive: 0.673
GGUAAUGGUAAAUGAUGUGTT against Celsr3 | inactive: -1.41
GCCACCAUCGUCAUGUUGATT against Ptpre | inactive: 0.825
GGAAGGUCAAGUCUUUUCUTT against Tesk1 | inactive: -0.814
CCAACCUGACCUCAAAAUUTT against Olfr913 | inactive: 0.896
GGUGAUCGAGGAGAGUCUATT against D130038B21Rik | inactive: -1.13

22 entries from above, reformatted.
Sequence	z-score
GGUGUCGAGAAGCCUCAAATT against Arhgap24	inactive: -0.788
GCUGAAACUAACAUUUGAUTT against Anxa3	inactive: -0.872
GGCUGCUCCACCCUAUAAUTT against Sugt1	inactive: -1.61
GGUCCCAGACUGAGUGAAATT against Epo	inactive: 2.32
GGGUUUCAGUCUUCUUAUCTT against Olfr556	inactive: -0.249
GCGGUCUAAGUCCUUUAGCTT against 0610025L06Rik	inactive: -0.245
GGCCACUGGCAAUGAAAAATT against Gata5	inactive: 0.623
GAUCACACUGAAAUCAUCATT against Nudt11	inactive: 1.56
GGUUGGCUUCAAAAAUAUGTT against Psmb1	inactive: -3.41
CGUCCAAGCAUAUAUGAAATT against Slfn8-pending	inactive: -0.306
GGUGUAUGAGGUGCUGCUATT against Ushbp1	inactive: -1.92
CCUGACUCUACAUUUUACATT against 4921526G09Rik	inactive: 1.23
GGUUGACUUCAAUAGUUCUTT against Krtap4-7	inactive: 0.545
GCCACUGCACUAUUUAACUTT against Olfr1247	inactive: 0.0845
GGAGAGUUUUAGAUGCCUCTT against Prnpip1	inactive: 0.171
GGGACUCCCAGGCUGUAAATT against Zfp263	inactive: -0.667
GCUAUGGCGCAUACUGCCATT against Olfr881	inactive: -0.673
CGUGUGGUGUUGGUAUCAGTT against 4930540L03Rik	inactive: -0.151
CCCAAUGAACAAGCUUAAGTT against Eif3s4	inactive: -0.039
AGUCAAGACCCAUAGAAAATT against Ociad2	inactive: 0.132
GGCUCGACUUGGAGAAAAGTT against D2Ertd391e	inactive: -2.59
GGGAUGCGAGAUGAUCUGCTT against Scrg1	inactive: 0.768

Next part

Sequence | z-score
GGUCUGAAAAAAGUAUCUUTT against 4930432O21Rik | inactive: 0.277
CGUCUGUCCUAAUGAACCUTT against MGC118154 | inactive: -1.78
GGAACUCUGUAGACAGAAUTT against Lpin1 | inactive: -1.23
GGGAAGAAAGAAAAACAAGTT against Col5a3 | inactive: 0.137
GCCAUUCGUAGUUGAGACGTT against Ppat | inactive: -1.15
GGAUGCUCAAAACAUUGAATT against Cyp2d26 | inactive: -1.08
UGCCUAUGCGCGUGUUUUGTT against 4931440P22Rik | inactive: 2.18
GAGCUCUGCAUUUGGUUAGTT against 2610510H03Rik | inactive: -0.517
GGCCAAGUUUUCUAACUUUTT against Creg2 | inactive: 0.00504
GGGCAAGGGUCUCAAACUATT against Rangap1 | inactive: -1.5
CGGUACUAAACAUUACCUCTT against Olfr633 | inactive: 0.294
GGUCUCCUCCAAGAUGAUGTT against Mettl3 | inactive: 0.651
GGAACAAGUGGCUGAAGAUTT against Cyp11b2 | inactive: -2.33
CCAUAAACGACGAAAUGAUTT against Usp11 | active: 2.97
GGAGAAACUGAAACAAGCUTT against Gpc4 | inactive: 1.03
GCUGGUAUGACCAAGAGAATT against Mutyh | inactive: -1.23
GGGUGUCAUAUGCAAAUUATT against Scube1 | inactive: -1.07
GCGUGUUGAAUUGAGGAAGTT against Galnt11 | inactive: 1.48
CCUUUGUGGCAGUCUUUCATT against Vpreb3 | inactive: -0.616
GGGAGAGACAUAUAUCCUGTT against A930034L06Rik | inactive: 0.171
CCUGGAGAUCCCUCACUUUTT against Olfr1351 | inactive: -0.159
CGGCAGUGUUAAAACAUGATT against Fgfr2 | inactive: 0.114
GGCAUGAACCAAGAUGCUGTT against Nr2e3 | inactive: 1.93
GGACAUUACACUGUUCAAATT against 6430546I09 | inactive: 0.291
GGCUGUAGUGAAGGUGUACTT against Adprtl3 | inactive: 1.62
GGAAAUAGAUUUUCAGCUCTT against Dnase2b | inactive: -0.117
